doi:10.1101/2020.07.01.182105
Read-outs that look alike come from different tables or passages of the source. These are yes or no findings as the source states them, for the method shown. Some binding calls cover weakened binding; strength is not graded here. Tags and fused reporters may be left off the sequences shown.

Amino acid sequences for entries named in this document (tags omitted).
UniProt P0CX43: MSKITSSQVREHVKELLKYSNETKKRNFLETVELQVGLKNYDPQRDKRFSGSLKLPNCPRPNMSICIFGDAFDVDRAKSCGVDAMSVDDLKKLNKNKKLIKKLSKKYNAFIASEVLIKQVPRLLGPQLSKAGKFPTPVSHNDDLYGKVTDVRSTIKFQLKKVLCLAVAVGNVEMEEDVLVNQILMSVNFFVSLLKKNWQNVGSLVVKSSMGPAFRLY

T1: eEF3 (eukaryotic elongation factor 3), C-terminally TAP-tagged (S. cerevisiae) (UniProt P16521)
T1 sequence: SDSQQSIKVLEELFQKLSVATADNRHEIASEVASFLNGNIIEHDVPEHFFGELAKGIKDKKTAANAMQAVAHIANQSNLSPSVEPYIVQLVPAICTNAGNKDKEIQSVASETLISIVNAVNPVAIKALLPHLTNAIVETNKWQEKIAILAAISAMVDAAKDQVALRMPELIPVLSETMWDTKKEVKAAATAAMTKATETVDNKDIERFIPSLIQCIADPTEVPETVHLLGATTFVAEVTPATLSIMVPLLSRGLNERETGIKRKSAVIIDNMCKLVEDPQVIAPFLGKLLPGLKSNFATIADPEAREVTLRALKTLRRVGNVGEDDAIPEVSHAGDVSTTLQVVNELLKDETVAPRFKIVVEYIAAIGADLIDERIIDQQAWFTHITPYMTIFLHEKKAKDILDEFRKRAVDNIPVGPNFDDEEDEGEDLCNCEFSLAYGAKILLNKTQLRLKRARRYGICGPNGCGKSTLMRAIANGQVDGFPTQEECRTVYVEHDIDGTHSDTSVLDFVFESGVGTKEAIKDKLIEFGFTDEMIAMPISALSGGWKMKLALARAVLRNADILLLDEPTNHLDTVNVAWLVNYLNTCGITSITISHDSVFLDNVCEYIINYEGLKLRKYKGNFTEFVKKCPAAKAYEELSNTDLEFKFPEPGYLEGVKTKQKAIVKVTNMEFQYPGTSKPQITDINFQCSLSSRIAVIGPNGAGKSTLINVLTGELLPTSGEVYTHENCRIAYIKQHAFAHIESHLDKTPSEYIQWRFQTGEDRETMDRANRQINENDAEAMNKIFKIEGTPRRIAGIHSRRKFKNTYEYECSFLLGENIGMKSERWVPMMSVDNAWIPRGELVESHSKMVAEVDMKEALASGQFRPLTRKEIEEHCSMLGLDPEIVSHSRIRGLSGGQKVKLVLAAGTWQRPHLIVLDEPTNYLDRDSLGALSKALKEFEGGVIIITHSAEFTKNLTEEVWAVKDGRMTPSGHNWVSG


What was measured:
[1] = molecular target: T1, eEF3 (eukaryotic elongation factor 3), C-terminally TAP-tagged (S. cerevisiae); experiment: cryo-EM structure
[2] = molecular target: T1, eEF3 (eukaryotic elongation factor 3), C-terminally TAP-tagged (S. cerevisiae); experiment: cryo-EM structure; remark: listed apart in the source

Row | binding [1] | binding [2] | Molecule
1 | binds | – | ribosomal protein uL1 (from UniProt P0CX43 1-217)
2 | – | binds | ribosomal protein uL18 (protein, UniProt P26321 1-297) MAFQKDAKSSAYSSRFQTPFRRRREGKTDYYQRKRLVTQHKAKYNTPKYRLVVRFTNKDIICQIISSTITGDVVLAAAYSHELPRYGITHGLTNWAAAYATGLLIARRTLQKLGLDETYKGVEEVEGEYELTEAVEDGPRPFKVFLDIGLQRTTTGARVFGALKGASDGGLYVPHSENRFPGWDFETEEIDPELLRSYIFGGHVSQYMEELADDDEERFSELFKGYLADDIDADSLEDIYTSAHEAIRADPAFKPTEKKFTKEQYAAESKKYRQTKLSKEERAARVAAKIAALAGQQ
3 | – | binds | ribosomal protein uS13 (protein, UniProt P0CX55 1-146) MSLVVQEQGSFQHILRLLNTNVDGNIKIVYALTTIKGVGRRYSNLVCKKADVDLHKRAGELTQEELERIVQIMQNPTHYKIPAWFLNRQNDITDGKDYHTLANNVESKLRDDLERLKKIRAHRGIRHFWGLRVRGQHTKTTGRRRA
